According to publication PMC6799845:
A negative result means that nothing was seen under these conditions. For some assays here: For at least one entry, the source does not settle the construct or the ends of the probe.

The chains behind the UniProt entries cited, without tags or fusion partners. Residues count along the entry.
UniProt P02769, 25-607: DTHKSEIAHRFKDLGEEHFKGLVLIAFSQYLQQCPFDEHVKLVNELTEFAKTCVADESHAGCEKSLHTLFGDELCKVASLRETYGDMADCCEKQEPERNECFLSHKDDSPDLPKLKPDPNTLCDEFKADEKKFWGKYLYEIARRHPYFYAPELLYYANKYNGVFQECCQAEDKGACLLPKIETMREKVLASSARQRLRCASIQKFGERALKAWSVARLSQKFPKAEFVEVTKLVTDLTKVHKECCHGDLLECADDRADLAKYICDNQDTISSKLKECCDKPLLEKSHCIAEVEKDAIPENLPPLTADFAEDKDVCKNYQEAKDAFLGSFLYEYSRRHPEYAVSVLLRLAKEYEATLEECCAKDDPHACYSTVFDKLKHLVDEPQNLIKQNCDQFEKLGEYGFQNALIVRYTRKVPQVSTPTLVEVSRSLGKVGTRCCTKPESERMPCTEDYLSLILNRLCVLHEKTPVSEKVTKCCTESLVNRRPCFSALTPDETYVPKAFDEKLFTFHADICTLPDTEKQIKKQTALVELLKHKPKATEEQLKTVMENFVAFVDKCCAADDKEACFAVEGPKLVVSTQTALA

Legend:
BSA = BSA (UniProt P02769); assay: electrochemistry (on-chip bead-bound aptamer); conditions: 2 mg/mL, no significant signal (<15% of 500 pg/mL IFN-γ response); Buffer C: 100 mM Tris-HCl pH 7.4, 100 mM NaCl, 1 mM MgCl2, 5 mM KCl; room temperature (optimized conditions stated as pH 7.5, 100 mM salt); commercial protein; folded or branched DNA
CA-125 = CA-125 (UniProt Q8WXI7); assay: electrochemistry (on-chip bead-bound aptamer); conditions: 1 mg/mL, no significant signal (<15%); Buffer C: 100 mM Tris-HCl pH 7.4, 100 mM NaCl, 1 mM MgCl2, 5 mM KCl; room temperature (optimized conditions stated as pH 7.5, 100 mM salt); commercial protein; folded or branched DNA

GGGGTTGGTTGTGTTGGGTGTTGTGTCCAACCCC [Fc-labeled IFN-γ hairpin aptamer (MB-aptamer)]
binding result (BSA): no binding
binding result (CA-125): no binding
